From patent publication US20230357334A1 (ALEPHOSON BIOPHARMACEUTICALS LTD., priority 2020, published 2023)
End groups of sequences in plain letters are not given here.

Assay: peptide synthesis
Settings: whole synthesis, 214 nm

Row | Sequence | final HPLC purity [%]
1 | RQIKIWFWWRRMKWKK | 96.16
2 | RWIKIWFWNRRMKWKK | 95.71
3 | RQIKIWFQWRRMKWKK | 97.84
4 | RQIKIWFWNRRMKWKK | 98.11
5 | RWIKIWFQWRRMKWKK | 99.22
6 | RWIKIWFWWRRMKWKK | 97.65
7 | RWIKIWFQNRRMKWKK | 95.94
